From the supplement of paper PMC12823440, “Inhibitors supercharge kinase turnover through native proteolytic circuits” (Nature, 2025)
Counter-ions that a name gives are not always drawn. The list shows a part of the results. Hit calls seldom repeat between salt and free forms of one compound.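 Kinases, fused to nanoluciferase, were expressed in K562 cells; luminescence was measured every 4 h from 2 to 18 h as percent of control (DMSO = 100%, positive control = 0%). A time point is decreased if signal falls significantly (2 sigma). Hits were called by the authors by a rule that is not shown; the count of time points alone does not decide it.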

The chains behind the UniProt entries cited, without tags or fusion partners. Where a name states a change or a piece, a line headed by the entry shows the natural chain unless it says otherwise.
UniProt Q16288, whole entry, looked up: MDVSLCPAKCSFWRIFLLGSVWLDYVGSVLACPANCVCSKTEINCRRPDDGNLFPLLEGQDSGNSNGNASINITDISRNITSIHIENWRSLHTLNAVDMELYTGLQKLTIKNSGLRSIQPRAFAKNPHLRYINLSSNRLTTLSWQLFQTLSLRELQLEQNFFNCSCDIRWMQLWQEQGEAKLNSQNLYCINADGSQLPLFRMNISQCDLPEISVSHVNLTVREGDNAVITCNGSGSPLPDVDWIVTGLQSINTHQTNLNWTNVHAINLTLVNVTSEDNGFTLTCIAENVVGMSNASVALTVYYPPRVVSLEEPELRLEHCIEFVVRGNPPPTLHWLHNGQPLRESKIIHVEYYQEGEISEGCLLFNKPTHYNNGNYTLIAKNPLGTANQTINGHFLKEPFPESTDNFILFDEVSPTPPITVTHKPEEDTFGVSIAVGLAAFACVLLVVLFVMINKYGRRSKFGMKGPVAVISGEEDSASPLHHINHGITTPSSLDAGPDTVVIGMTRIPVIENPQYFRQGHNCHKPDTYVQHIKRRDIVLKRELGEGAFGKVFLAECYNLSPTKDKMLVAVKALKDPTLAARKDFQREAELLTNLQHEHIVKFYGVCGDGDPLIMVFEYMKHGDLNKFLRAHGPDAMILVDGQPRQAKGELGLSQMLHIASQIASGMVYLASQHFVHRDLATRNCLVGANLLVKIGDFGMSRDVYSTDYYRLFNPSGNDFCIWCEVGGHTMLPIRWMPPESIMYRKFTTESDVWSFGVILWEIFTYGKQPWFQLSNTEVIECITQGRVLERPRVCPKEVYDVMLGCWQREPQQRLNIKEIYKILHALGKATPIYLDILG
UniProt O96013: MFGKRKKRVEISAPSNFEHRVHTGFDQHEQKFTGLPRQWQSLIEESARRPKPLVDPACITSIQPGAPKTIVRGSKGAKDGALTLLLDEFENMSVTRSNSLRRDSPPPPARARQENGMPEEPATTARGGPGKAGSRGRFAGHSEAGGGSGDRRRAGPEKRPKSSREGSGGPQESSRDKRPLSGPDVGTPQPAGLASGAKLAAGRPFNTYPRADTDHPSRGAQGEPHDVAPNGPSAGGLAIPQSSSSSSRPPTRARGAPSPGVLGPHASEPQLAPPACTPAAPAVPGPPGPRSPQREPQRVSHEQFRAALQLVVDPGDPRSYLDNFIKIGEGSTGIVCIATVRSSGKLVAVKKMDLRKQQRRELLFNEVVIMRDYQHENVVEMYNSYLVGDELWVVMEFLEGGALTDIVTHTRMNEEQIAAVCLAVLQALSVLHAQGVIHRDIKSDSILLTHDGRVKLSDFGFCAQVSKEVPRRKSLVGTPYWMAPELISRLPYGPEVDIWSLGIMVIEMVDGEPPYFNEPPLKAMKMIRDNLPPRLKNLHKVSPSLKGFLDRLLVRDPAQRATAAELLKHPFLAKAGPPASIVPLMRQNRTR
UniProt Q15118, whole entry, looked up: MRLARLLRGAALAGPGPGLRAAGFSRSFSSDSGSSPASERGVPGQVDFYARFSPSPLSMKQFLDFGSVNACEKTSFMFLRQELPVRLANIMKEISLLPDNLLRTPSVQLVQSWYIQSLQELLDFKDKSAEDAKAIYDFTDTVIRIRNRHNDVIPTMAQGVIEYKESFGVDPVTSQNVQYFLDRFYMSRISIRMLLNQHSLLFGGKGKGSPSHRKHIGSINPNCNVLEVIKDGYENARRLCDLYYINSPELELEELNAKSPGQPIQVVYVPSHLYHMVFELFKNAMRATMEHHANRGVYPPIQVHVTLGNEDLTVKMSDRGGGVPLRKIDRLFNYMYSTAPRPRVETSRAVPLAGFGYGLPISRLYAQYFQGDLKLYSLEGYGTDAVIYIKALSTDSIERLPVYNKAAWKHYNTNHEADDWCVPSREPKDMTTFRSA
UniProt Q9UBF8: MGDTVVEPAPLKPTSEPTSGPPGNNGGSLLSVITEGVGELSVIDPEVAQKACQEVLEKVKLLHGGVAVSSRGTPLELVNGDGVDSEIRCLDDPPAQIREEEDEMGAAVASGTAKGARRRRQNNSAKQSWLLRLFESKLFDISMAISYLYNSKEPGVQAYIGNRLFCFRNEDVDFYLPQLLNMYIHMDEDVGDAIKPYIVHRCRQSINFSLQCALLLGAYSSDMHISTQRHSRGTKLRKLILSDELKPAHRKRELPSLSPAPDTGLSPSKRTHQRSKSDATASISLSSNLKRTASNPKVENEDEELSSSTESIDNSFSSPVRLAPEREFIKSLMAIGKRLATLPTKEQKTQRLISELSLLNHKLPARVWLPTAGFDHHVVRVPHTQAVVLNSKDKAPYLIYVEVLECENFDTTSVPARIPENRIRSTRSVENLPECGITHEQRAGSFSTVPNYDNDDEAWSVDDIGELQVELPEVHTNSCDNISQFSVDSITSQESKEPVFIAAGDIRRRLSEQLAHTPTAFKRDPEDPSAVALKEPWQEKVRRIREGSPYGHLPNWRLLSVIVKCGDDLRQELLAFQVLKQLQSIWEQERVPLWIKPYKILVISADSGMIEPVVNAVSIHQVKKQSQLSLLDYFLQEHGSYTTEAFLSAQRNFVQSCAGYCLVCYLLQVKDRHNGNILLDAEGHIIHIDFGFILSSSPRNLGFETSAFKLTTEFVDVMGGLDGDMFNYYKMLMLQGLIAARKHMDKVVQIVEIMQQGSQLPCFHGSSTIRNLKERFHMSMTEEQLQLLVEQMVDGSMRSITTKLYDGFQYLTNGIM
UniProt Q05397, whole entry, looked up: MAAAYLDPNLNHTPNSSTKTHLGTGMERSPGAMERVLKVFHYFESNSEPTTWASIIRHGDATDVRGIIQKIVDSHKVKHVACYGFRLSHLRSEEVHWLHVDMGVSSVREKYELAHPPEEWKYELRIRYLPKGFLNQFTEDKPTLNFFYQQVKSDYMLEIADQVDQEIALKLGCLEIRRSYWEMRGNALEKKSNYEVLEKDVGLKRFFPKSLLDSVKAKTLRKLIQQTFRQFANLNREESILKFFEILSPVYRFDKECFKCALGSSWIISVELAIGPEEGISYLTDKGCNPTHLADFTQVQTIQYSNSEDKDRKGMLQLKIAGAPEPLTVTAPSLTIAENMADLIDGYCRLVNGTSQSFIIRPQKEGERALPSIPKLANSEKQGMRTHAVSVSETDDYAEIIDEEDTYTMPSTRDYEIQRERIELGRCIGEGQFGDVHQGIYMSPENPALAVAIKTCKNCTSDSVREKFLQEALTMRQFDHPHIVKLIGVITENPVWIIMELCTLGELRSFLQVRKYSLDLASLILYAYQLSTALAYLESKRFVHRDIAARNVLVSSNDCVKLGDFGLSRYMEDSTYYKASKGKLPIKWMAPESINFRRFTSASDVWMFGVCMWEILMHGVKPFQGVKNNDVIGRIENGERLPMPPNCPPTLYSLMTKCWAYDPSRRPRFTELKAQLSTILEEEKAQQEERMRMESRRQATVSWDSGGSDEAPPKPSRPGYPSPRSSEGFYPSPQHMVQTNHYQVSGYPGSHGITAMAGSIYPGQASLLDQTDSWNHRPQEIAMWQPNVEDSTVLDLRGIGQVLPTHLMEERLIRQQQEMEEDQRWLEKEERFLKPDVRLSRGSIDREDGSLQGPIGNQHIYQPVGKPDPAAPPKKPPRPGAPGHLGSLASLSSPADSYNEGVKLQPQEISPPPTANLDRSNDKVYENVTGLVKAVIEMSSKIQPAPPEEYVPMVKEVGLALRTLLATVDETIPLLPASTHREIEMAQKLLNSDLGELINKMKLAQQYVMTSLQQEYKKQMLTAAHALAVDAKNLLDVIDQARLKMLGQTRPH
UniProt P07949, whole entry, looked up: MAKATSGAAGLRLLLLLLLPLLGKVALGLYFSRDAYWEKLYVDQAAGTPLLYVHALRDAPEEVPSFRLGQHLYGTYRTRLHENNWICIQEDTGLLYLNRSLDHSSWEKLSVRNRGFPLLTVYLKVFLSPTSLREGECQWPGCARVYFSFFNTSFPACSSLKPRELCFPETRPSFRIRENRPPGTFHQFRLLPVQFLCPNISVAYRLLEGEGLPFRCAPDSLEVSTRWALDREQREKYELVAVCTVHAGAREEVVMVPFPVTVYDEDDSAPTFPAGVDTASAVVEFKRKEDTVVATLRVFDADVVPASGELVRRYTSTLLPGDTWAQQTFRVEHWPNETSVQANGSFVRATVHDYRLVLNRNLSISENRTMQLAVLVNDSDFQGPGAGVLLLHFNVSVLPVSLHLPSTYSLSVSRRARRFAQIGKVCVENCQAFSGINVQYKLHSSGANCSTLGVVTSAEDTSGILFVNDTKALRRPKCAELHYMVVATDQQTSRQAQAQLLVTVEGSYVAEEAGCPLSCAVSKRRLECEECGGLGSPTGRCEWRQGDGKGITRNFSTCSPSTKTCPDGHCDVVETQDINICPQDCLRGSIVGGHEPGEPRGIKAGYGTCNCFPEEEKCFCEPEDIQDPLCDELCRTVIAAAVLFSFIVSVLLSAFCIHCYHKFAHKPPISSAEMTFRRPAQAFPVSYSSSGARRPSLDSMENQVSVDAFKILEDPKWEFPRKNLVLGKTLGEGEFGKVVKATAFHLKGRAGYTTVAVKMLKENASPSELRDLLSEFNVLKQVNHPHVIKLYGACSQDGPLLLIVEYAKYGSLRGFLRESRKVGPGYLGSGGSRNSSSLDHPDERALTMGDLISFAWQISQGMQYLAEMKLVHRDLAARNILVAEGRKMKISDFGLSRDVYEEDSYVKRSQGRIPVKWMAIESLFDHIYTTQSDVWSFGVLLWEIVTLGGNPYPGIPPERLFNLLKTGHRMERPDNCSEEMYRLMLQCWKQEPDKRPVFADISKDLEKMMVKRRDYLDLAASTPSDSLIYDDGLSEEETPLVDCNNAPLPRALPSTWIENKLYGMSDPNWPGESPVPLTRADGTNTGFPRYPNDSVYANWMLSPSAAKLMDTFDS
UniProt P07949, whole entry M918T, looked up: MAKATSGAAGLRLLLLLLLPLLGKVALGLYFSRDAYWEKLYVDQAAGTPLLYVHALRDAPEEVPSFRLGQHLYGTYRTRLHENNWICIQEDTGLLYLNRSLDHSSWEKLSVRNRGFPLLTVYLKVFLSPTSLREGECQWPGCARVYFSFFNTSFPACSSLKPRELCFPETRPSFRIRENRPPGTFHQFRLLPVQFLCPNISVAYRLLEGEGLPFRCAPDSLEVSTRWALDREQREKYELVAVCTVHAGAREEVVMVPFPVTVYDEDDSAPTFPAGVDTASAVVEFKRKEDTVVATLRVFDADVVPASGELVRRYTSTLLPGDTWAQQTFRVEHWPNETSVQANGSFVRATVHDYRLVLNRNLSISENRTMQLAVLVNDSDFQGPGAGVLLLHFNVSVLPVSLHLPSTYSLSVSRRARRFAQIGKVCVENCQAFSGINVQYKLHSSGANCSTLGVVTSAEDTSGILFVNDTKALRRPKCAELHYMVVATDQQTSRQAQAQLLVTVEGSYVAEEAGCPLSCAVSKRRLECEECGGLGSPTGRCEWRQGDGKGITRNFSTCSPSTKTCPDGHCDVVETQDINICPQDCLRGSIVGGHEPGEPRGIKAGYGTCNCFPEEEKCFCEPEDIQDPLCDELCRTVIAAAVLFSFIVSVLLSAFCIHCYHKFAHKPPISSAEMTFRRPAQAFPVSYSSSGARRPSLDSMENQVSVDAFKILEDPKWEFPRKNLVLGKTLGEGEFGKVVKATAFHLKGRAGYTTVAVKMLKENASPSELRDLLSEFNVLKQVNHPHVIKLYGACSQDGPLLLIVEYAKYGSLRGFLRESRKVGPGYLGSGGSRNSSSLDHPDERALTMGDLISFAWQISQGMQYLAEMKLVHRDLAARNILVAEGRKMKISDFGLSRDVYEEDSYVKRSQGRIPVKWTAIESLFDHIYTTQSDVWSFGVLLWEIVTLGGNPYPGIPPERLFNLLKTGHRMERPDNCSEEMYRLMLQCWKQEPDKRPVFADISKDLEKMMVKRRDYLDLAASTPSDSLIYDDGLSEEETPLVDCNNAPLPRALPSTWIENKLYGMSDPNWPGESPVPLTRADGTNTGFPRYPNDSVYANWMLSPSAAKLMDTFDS
UniProt Q9BRS2: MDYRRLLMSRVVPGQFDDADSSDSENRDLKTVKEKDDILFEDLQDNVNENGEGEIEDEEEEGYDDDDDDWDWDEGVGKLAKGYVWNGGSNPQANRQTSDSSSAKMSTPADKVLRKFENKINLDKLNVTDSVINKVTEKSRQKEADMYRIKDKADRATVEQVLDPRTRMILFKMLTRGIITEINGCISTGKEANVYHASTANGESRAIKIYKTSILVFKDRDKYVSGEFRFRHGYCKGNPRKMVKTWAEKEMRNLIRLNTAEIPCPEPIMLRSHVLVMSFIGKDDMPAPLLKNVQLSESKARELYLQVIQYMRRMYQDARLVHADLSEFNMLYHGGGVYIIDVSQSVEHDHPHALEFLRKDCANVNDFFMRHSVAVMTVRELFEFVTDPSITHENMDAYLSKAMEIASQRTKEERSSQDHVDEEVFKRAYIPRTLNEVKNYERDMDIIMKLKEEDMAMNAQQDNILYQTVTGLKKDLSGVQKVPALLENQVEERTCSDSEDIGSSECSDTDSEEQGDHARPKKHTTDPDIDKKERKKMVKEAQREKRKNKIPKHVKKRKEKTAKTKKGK

Legend:
Test in all cases: number of time points (of 5) at which kinase-Nluc abundance scored as decreased, DMSO-normalised (count); higher = more persistent destabilization
Settings in all cases: K562; 2-18 h
NTRK3 = NTRK3 (UniProt Q16288)
PAK4 = PAK4 (UniProt O96013)
PBK = PBK (UniProt Q96KB5)
PDGFRB = PDGFRB (UniProt P09619)
PDK1 = PDK1 (UniProt Q15118)
PDPK1 = PDPK1 (UniProt O15530)
PIK4CA = PIK4CA (UniProt P42356)
PIK4CB = PIK4CB (UniProt Q9UBF8)
PLK1 = PLK1 (UniProt P53350)
PRKAA1 = PRKAA1 (UniProt Q13131)
PRKCA = PRKCA (UniProt P17252)
PTK2 = PTK2 (UniProt Q05397)
RAF1 = RAF1 (UniProt P04049)
[1] = target: RAF1_S257L (clone: RAF1_mut) (UniProt P04049)
RET = RET (UniProt P07949)
[2] = target: RET_M918T (clone: RET_mut) (UniProt P07949)
RIOK1 = RIOK1 (UniProt Q9BRS2)
RIPK1 = RIPK1 (UniProt Q13546)
RIPK2 = RIPK2 (UniProt O43353)
PTK2B = PTK2B (UniProt Q14289)

| Compound | number of time points (NTRK3) | number of time points (PAK4) | number of time points (PBK) | number of time points (PDGFRB) | number of time points (PDK1) | number of time points (PDPK1) | number of time points (PIK4CA) | number of time points (PIK4CB) | number of time points (PLK1) | number of time points (PRKAA1) | number of time points (PRKCA) | number of time points (PTK2) | number of time points (RAF1) | number of time points [1] | number of time points (RET) | number of time points [2] | number of time points (RIOK1) | number of time points (RIPK1) | number of time points (RIPK2) | number of time points (PTK2B) |
| --- | --- | --- | --- | --- | --- | --- | --- | --- | --- | --- | --- | --- | --- | --- | --- | --- | --- | --- | --- | --- |
| N#CC(C#N)=Cc1ccc(O)c(O)c1 [Tyrphostin 23] (10 µM) | 0 | 0 | 0 | 0 | 0 | 0 | 0 | 0 | 0 | 0 | 0 | 0 | 0 | 0 | 0 | 0 | 0 | 0 | 0 |  |
| COc1cc2c(cc1F)C(c1ccccc1Cl)=Nc1c(n[nH]c1C)N2 (0.5 µM) | 0 | 0 | 0 | 0 | 0 | 0 | 0 | 0 | 0 | 0 | 0 | 0 | 0 | 0 |  |  | 0 | 0 | 0 | 0 |
| Nc1ncnc2c1ncn2[C@@H]1O[C@@H]2COP(O)(=S)O[C@H]2[C@H]1O (stereo partly drawn) [Sp-cAMPS (sodium salt)] (10 µM) | 0 | 0 | 0 | 0 | 0 | 0 | 0 | 0 | 0 | 0 | 0 | 0 | 0 | 0 | 0 | 0 | 0 | 0 | 0 | 0 |
| CC1=C[C@]23C(=O)[C@@H](C=C(CO)[C@@H](O)[C@]2(O)[C@H]1O)[C@H]1[C@@H](C[C@H]3C)C1(C)C [Ingenol] (10 µM) | 0 | 0 | 0 | 0 | 0 | 0 | 0 | 0 | 0 | 0 | 0 | 0 | 0 | 0 | 0 | 0 | 0 | 0 | 0 | 0 |
| COc1ccc(/C=C/c2cc(OC)c(OC)c(OC)c2)cc1 (2.5 µM) | 2 | 0 | 0 | 2 | 1 | 2 | 1 | 1 | 0 | 1 | 0 | 0 | 2 | 1 | 0 | 0 | 1 | 0 | 3 | 0 |
| CC(=O)Oc1ccc(/C=C/c2cc(OC(C)=O)cc(OC(C)=O)c2)cc1 [Triacetylresveratrol] (10 µM) | 0 | 0 | 0 | 0 | 0 | 0 | 0 | 0 | 0 | 0 | 0 | 0 | 0 | 0 | 0 | 0 | 0 | 0 | 0 | 0 |
| O=c1[nH]c2ccccc2n1C1CCN(CCCC(c2ccc(F)cc2)c2ccc(F)cc2)CC1 [Pimozide] (2.5 µM) | 0 | 0 | 0 | 0 | 0 | 0 | 0 | 0 | 0 | 0 | 0 | 0 | 0 | 0 | 0 | 0 | 0 | 0 | 0 | 0 |
| O=[N+]([O-])/C=C/c1ccc2c(c1)OCO2 (2.5 µM) | 0 | 0 | 0 | 0 | 0 | 0 | 0 | 0 | 0 | 0 | 0 | 0 | 0 | 0 | 0 | 0 | 0 | 0 | 0 | 0 |
| COc1ccc2c(c1)[nH]c1c(C)nccc12 [Harmine] (10 µM) | 0 | 0 | 0 | 0 | 0 | 0 | 0 | 0 | 0 | 0 | 0 | 0 | 0 | 0 | 0 | 0 | 0 | 0 | 0 | 0 |
| CC1C(=O)OC2C(O)C34C5OC(=O)C3(OC3OC(=O)C(O)C34C(C(C)(C)C)C5O)C12O (stereo not drawn) [Ginkgolide C] (10 µM) | 0 | 0 | 0 | 0 | 0 | 0 | 0 | 0 | 0 | 0 | 0 | 0 | 0 | 0 | 0 | 0 | 0 | 0 | 0 | 0 |
| COc1ccc2c(c1)/C(=C/c1cnc[nH]1)C(=O)N2 (2.5 µM) | 0 | 0 | 0 |  | 0 | 0 | 0 | 0 | 0 | 0 | 0 | 0 | 0 | 0 |  |  | 0 | 0 | 0 |  |
| O=Cc1cn(Cc2ccc(Cl)cc2)c2ccccc12 [Oncrasin-1] (10 µM) | 0 | 0 | 0 | 0 | 0 | 0 | 0 | 0 | 0 | 0 | 0 | 0 | 0 | 0 | 0 | 0 | 0 | 0 | 0 | 0 |
